Source: the supplement of paper PMC12067093, “Discovery and optimisation of a covalent ligand for TRIM25 and its application to targeted protein ubiquitination” (Chemical Science, 2025)
Some of the results follow.

By UniProt entry, the sequences of proteins in these tests, tags left out. Where a name states a change or a piece, a line headed by the entry shows the natural chain unless it says otherwise.
UniProt Q5M775: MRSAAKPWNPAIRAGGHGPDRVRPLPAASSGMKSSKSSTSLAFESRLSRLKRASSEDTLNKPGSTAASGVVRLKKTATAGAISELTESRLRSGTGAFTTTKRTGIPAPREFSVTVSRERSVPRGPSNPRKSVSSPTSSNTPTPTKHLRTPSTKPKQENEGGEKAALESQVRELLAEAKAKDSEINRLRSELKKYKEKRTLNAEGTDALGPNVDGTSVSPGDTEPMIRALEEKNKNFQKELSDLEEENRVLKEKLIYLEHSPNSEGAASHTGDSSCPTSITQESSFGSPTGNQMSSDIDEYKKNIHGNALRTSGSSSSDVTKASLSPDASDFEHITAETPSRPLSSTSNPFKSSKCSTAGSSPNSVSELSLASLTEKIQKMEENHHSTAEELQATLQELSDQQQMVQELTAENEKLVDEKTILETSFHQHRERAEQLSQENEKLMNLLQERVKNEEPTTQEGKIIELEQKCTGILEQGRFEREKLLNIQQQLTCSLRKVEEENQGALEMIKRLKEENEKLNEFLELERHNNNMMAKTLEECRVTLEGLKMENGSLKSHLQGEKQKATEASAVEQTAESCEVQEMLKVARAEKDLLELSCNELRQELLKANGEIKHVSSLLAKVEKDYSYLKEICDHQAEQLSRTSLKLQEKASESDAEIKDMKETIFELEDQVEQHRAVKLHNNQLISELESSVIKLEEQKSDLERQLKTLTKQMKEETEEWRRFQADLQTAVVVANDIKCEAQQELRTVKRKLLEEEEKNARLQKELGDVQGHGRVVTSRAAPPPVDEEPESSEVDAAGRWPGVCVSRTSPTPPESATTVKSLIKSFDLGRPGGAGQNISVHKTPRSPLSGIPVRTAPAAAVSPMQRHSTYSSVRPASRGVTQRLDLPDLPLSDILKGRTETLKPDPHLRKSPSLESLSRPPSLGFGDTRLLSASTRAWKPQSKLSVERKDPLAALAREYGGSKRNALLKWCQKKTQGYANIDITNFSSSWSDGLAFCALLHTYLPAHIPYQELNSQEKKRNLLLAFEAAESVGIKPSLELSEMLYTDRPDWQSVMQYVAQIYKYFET
UniProt P08047, whole entry, looked up: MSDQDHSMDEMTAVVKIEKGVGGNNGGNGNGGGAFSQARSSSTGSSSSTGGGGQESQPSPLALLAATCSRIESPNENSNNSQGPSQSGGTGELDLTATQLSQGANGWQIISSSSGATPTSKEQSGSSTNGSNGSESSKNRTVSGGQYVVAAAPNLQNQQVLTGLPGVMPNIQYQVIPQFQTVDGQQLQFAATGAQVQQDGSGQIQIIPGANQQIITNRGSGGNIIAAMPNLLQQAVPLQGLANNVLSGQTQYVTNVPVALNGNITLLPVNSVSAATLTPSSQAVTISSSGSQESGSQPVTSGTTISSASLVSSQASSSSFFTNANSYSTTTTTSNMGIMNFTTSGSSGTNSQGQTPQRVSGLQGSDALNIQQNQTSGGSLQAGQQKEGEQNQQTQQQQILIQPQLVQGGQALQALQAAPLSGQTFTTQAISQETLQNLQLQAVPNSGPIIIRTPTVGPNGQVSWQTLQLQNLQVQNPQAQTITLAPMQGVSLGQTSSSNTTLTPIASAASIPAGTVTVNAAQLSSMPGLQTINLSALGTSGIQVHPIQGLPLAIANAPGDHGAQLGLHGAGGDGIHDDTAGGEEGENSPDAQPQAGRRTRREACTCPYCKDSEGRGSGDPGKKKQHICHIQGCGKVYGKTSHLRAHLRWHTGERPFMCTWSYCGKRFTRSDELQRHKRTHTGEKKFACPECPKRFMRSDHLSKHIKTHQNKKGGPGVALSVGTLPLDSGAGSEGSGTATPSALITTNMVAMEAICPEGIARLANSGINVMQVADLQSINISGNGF
UniProt P19623: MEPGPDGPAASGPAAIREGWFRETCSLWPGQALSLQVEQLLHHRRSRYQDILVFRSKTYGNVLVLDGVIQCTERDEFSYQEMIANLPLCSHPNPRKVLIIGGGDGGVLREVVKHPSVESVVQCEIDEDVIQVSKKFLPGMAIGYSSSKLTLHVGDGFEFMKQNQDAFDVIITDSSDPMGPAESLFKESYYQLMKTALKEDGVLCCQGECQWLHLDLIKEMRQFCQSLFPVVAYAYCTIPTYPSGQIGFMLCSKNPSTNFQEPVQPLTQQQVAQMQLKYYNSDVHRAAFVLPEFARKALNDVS
UniProt Q9UHB9: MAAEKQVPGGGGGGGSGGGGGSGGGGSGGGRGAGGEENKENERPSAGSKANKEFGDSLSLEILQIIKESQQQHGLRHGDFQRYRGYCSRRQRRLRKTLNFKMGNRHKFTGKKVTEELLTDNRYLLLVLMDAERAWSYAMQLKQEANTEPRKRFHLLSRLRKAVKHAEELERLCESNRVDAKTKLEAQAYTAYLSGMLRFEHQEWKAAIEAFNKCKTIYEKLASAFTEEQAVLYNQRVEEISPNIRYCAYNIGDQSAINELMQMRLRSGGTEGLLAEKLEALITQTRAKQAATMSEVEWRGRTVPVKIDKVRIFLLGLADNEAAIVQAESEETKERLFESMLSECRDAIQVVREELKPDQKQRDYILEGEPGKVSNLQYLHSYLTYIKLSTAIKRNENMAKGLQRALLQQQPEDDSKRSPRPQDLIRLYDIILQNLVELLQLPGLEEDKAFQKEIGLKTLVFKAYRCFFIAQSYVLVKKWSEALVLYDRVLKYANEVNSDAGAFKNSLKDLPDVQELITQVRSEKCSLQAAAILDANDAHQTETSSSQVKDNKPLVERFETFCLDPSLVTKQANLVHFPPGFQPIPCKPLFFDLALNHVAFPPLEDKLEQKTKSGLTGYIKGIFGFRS
UniProt Q9UNH7: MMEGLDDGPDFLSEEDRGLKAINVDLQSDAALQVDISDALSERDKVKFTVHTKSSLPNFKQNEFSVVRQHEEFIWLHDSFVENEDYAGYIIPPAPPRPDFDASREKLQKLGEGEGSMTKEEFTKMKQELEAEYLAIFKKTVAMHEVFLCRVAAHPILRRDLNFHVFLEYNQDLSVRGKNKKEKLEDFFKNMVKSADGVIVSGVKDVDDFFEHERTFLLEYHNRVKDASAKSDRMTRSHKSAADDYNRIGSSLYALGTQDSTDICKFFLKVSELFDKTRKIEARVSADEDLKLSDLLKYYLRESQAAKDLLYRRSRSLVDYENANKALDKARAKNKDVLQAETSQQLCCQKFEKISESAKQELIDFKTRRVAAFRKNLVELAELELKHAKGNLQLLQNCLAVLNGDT
UniProt P55769: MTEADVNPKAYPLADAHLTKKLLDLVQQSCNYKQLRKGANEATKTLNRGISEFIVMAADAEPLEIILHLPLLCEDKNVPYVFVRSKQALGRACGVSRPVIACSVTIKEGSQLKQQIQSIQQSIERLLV
UniProt Q92673: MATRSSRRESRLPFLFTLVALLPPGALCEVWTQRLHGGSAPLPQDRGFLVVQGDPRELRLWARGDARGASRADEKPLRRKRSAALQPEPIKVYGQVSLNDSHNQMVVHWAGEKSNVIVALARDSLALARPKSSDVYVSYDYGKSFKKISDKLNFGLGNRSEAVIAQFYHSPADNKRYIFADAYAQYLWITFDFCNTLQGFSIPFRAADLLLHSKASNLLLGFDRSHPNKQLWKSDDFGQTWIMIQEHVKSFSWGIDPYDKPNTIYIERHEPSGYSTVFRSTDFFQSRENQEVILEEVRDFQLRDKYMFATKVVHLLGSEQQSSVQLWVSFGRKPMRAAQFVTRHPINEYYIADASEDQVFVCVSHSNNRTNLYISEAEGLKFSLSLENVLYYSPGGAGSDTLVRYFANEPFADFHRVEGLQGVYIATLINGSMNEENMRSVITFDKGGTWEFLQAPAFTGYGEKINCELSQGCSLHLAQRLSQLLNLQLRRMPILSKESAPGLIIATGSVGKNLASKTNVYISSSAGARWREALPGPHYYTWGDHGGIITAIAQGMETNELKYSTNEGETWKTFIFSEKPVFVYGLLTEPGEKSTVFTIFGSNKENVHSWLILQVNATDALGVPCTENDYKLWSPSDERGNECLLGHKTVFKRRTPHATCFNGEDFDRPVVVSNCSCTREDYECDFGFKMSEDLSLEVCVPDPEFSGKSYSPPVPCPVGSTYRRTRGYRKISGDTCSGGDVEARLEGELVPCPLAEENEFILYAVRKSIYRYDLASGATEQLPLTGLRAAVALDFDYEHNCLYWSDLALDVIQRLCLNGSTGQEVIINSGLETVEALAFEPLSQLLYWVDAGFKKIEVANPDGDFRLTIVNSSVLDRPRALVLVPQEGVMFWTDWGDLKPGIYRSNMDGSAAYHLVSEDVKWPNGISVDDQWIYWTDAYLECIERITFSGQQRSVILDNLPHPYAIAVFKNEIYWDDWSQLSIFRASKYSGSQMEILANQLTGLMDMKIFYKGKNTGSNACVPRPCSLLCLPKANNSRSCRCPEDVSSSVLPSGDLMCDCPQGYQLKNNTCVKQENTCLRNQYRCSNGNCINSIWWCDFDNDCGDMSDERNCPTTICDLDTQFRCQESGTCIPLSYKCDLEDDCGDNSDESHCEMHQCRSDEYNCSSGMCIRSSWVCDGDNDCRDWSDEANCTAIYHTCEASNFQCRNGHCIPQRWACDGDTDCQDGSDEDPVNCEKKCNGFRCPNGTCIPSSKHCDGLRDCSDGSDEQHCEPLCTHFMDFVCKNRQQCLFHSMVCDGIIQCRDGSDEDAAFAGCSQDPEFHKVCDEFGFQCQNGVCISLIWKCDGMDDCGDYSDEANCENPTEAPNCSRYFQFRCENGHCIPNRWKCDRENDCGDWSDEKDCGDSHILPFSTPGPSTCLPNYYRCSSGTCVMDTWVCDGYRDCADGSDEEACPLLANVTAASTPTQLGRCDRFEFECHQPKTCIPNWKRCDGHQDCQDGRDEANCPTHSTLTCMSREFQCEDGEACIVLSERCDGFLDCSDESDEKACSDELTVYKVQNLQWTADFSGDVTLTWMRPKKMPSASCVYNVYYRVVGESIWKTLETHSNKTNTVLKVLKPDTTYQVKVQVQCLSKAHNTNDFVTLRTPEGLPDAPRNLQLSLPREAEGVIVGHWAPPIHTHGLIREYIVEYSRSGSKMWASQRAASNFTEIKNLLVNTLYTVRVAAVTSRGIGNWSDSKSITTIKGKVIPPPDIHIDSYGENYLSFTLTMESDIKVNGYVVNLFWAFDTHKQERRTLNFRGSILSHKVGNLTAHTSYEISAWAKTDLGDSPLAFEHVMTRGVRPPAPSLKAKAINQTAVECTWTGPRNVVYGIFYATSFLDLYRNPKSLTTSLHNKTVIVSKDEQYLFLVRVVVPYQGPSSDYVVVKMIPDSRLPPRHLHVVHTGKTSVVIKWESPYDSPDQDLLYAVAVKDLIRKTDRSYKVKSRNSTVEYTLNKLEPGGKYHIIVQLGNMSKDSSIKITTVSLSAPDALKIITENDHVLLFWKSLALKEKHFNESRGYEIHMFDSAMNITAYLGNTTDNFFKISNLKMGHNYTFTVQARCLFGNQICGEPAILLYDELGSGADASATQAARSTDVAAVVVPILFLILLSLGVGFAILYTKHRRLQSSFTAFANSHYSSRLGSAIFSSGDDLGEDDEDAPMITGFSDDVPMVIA
UniProt P09132: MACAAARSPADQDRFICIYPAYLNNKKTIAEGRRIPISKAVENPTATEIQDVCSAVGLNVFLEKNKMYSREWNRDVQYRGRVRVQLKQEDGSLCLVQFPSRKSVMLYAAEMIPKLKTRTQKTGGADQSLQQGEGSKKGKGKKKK
UniProt P00441, whole entry, looked up: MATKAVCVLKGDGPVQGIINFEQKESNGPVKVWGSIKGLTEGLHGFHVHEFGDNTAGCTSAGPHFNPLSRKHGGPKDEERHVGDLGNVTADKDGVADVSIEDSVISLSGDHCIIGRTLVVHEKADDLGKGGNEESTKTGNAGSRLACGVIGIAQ
UniProt Q9H930: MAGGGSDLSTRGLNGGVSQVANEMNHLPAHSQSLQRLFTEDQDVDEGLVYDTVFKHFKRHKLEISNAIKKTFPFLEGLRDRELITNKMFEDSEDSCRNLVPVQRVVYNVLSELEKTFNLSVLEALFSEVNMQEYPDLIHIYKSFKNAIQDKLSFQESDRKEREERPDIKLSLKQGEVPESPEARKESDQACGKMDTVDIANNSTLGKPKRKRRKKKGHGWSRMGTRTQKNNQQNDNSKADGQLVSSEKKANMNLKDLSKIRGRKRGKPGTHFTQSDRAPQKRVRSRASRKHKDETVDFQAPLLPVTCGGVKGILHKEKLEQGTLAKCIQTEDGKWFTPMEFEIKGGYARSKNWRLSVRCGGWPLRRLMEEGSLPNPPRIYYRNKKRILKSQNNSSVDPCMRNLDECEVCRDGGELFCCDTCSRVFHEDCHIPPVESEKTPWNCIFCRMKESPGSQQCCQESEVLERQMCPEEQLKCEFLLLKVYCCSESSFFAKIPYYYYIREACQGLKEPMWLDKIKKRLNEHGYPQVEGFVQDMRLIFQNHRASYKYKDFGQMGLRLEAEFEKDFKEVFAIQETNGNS
UniProt P49458: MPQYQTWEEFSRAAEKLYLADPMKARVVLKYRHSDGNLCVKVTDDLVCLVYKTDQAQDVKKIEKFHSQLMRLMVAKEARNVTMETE

compound: CC1Cc2ccccc2N1C(=O)C1CCCN(C1)C(=O)CCl (mixture of isomers) [TRIM25 ligand 11 (diastereomer mixture)]; assay: probe-labelled cysteine peptide fold change vs DMSO (competition) (log2 fold change); higher = less target engagement (more negative = stronger competition); conditions: 50 µM; THP-1; incubation time: 4 h
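Further: competitive chemoproteomic profiling in live THP-1 cells with an iodoacetamide desthiobiotin (IA-DTB) probe, comparing probe-labelled peptide intensities in compound-treated cells against DMSO-treated controls.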

Target	probe-labelled cysteine peptide fold change
SRC_P12931_248_LTTVCPTSKPQTQGLAK (UniProt P12931)	-0.0306
SNX1_Q13596_318_LQEVECEEQR (UniProt Q13596)	-0.00471
SNRNP70_P08621_39_HHNQPYCGIAPYIR (UniProt P08621)	-0.228
SPECC1_Q5M775_740_CEAQQELR (UniProt Q5M775)	-0.0406
SP1_P08047_633_QHICHIQGCGK (UniProt P08047)	0.127
SRC_P12931_241_HADGLCHR (UniProt P12931)	0.199
SRBD1_Q8N5C6_912_SIVCLEDLQIGTVLTGK (UniProt Q8N5C6)	-0.14
SRM_P19623_209_EDGVLCCQGECQWLHLDLIK (UniProt P19623)	0.294
SPATA5L1_Q9BVQ7_685_TMPIGPDVSLENLAAETCFFSGADLR (UniProt Q9BVQ7)	0.164
SRP68_Q9UHB9_344_LFESMLSECR (UniProt Q9UHB9)	-0.0262
SPTAN1_Q13813_2233_TYLLDGSCMVEESGTLESQLEATK (UniProt Q13813)	-0.263
SNX27_Q96L92_519_VFCELK (UniProt Q96L92)	0.295
SRP68_Q9UHB9_173_LCESNR (UniProt Q9UHB9)	0.559
SNX6_Q9UNH7_347+348_DVLQAETSQQLCCQK (UniProt Q9UNH7)	-0.03
SNU13_P55769_93_ACGVSRPVIACSVTIK (UniProt P55769)	-0.0764
SORL1_Q92673_643_LWSPSDERGNECLLGHK (UniProt Q92673)	-0.0525
SRP19_P09132_17_FICIYPAYLNNKK (UniProt P09132)	-0.125
SORD_Q00796_106_ENDEFCK (UniProt Q00796)	-0.0179

Target	probe-labelled cysteine peptide fold change
SNX7_Q9UNH6_325_VECANNALK (UniProt Q9UNH6)	0.125
SPECC1_Q5M775_493_LLNIQQQLTCSLR (UniProt Q5M775)	-0.117
SP1_P08047_633_KQHICHIQGCGK (UniProt P08047)	-0.216
SNRPB_P14678_19_CILQDGR (UniProt P14678)	0.144
SOD1_P00441_147_LACGVIGIAQ (UniProt P00441)	0.128
SNRPB_P14678_45_HMNLILCDCDEFRK (UniProt P14678)	-0.0458
SP140L_Q9H930_191_KESDQACGK (UniProt Q9H930)	-0.23
SNX6_Q9UNH7_149_KTVAMHEVFLCR (UniProt Q9UNH7)	-0.257
SPG11_Q96JI7_1890_LLDDGCVHEASR (UniProt Q96JI7)	-0.169
SPTAN1_Q13813_1454_MMLDQCLELQLFHRDCEQAENWMAAR (UniProt Q13813)	0.00333
SRP9_P49458_48_VTDDLVCLVYK (UniProt P49458)	-0.113
SRP19_P09132_17_FICIYPAYLNNK (UniProt P09132)	0.113
SPART_Q8N0X7_504_VSQFLVDGVCTVANCVGK (UniProt Q8N0X7)	0.0184
SP1_P08047_691_FACPECPK (UniProt P08047)	0.226
SQSTM1_Q13501_113_DHRPPCAQEAPR (UniProt Q13501)	-0.0823
SORL1_Q92673_1376_CENGHCIPNR (UniProt Q92673)	0.156
SRM_P19623_123_HPSVESVVQCEIDEDVIQVSK (UniProt P19623)	-0.115
SP140L_Q9H930_429_VFHEDCHIPPVESEK (UniProt Q9H930)	0.236

As entered above:
Value for SRC_P12931_248_LTTVCPTSKPQTQGLAK (UniProt P12931) under probe-labelled cysteine peptide fold change: -0.0306
Value for SRM_P19623_123_HPSVESVVQCEIDEDVIQVSK (UniProt P19623) under probe-labelled cysteine peptide fold change: -0.115
